Assay results as given in PubChem BioAssay AID220 (DTP/NCI, 2004).
The list is a part of this screen's results and no random one: it gathers tests that were run many times, whatever their T/C, doses with no T/C, and many T/C values between a quarter and a half above the control. Other doses and runs of a compound stand elsewhere. T/C gives the treated animals as a percentage of the vehicle group. Schedules are NCI's codes, taken here to give the interval after Q, in days (D) or hours (H), and the number of doses after X. Some T/C values carry the count of animals alive at the toxicity check (mostly the fifth day); without a count, all were alive then. Some doses have a count of surviving animals in place of a T/C: the source holds a T/C of zero for them, seemingly a mark for toxic or unscored doses. Counts of survivors are from the toxicity check (mostly the fifth day) where no day follows; animals may have died later. Some entries were tested several times; the values are given in rising order.

Tested on: CD8F1 mice, subcutaneous mammary adenocarcinoma, T/C%
Experiment: NCI In Vivo Anticancer Drug Screen. Data for tumor model Mammary Adenocarcinoma CD8F1 (subcutaneous) in CD8F1
Settings: higher T/C = larger tumour
Method: The antitumor activity of compounds was measured in mice bearing transplantable tumors. Survival or tumor size were measured and the results are expressed as the measurement made in the treated group (T) divided by the measurement made in the vehicle treated control group (C). The tumor model used in this assay is Mammary Adenocarcinoma CD8F1 (subcutaneous) in CD8F1

[1] = T/C endpoint: median tumor weight change, dose: 2.5 mg/kg/injection, schedule: Q01DX001 (ip), vehicle: suspension in saline
[2] = T/C endpoint: median tumor weight change, dose: 5.0 mg/kg/injection, schedule: Q01DX001 (ip), vehicle: suspension in saline
[3] = T/C endpoint: median tumor weight (est.), dose: 100.0 mg/kg/injection, schedule: Q07DX005 (ip), vehicle: Klucel (hydroxypropylcellulose) (HPC)
[4] = T/C endpoint: median tumor weight (est.), dose: 8.0 mg/kg/injection, schedule: Q07DX005 (ip), vehicle: saline
[5] = T/C endpoint: median tumor weight (est.), dose: 12.5 mg/kg/injection, schedule: Q07DX005 (ip), vehicle: Klucel (hydroxypropylcellulose) (HPC), evaluated on day 30
[6] = T/C endpoint: median tumor weight (est.), dose: 200.0 mg/kg/injection, schedule: Q07DX005 (ip), vehicle: Klucel (hydroxypropylcellulose) (HPC), evaluated on day 30

CO[C@@H]1[C@H](O)CC[C@]2(CO2)[C@H]1[C@@]1(C)O[C@@H]1CC=C(C)C
T/C (T/C endpoint: median tumor weight change, dose: 15.6 mg/kg/injection, schedule: Q01DX001 (ip), vehicle: saline with Tween-80, evaluated on day 28): 130 % of control

CNC(=O)/C=C/C1=CN2C(=O)c3ccc(C)c(O)c3NC(OC)C2C1 (stereo unspecified)
survivor count (T/C endpoint: median tumor weight change, dose: 0.15 mg/kg/injection, schedule: Q01DX001 (ip), vehicle: suspension in saline): 1 of 10 on day 30
survivor count (T/C endpoint: median tumor weight change, dose: 0.31 mg/kg/injection, schedule: Q01DX001 (ip), vehicle: suspension in saline): 0 of 10 on day 30
survivor count (T/C endpoint: median tumor weight change, dose: 0.62 mg/kg/injection, schedule: Q01DX001 (ip), vehicle: suspension in saline): 0 of 10 on day 30 and 0 of 10 on day 39
survivor count (T/C endpoint: median tumor weight change, dose: 1.25 mg/kg/injection, schedule: Q01DX001 (ip), vehicle: saline): 3 of 10 on day 36
survivor count (T/C endpoint: median tumor weight change, dose: 1.25 mg/kg/injection, schedule: Q01DX001 (ip), vehicle: suspension in saline): 0 of 10 on day 39
survivor count (T/C endpoint: median tumor weight change, dose: 2.5 mg/kg/injection, schedule: Q01DX001 (ip), vehicle: saline): 0 of 10 on day 36
survivor count [1]: 0 of 10 on day 39
survivor count (T/C endpoint: median tumor weight change, dose: 5.0 mg/kg/injection, schedule: Q01DX001 (ip), vehicle: saline): 0 of 10 on day 36
survivor count [2]: 0 of 10 on day 39

CC(=O)NC(C=O)OCC=O (stereo unspecified)
survivor count (T/C endpoint: median tumor weight change, dose: 1000.0 mg/kg/injection, schedule: Q01DX001 (ip), vehicle: water): 0 of 10 on day 29

N#CC(C#N)=C/C=C/c1cccc([N+](=O)[O-])c1
T/C (T/C endpoint: median tumor weight (est.), dose: 50.0 mg/kg/injection, schedule: Q07DX005 (ip), vehicle: Klucel (hydroxypropylcellulose) (HPC), evaluated on day 30): 146 % of control [9 of 10 alive on day 30]
survivor count [3]: 5 of 10 on day 30

CC(C)CCC(=O)c1ccoc1
survivor count (T/C endpoint: median tumor weight change, dose: 2.5 mg/kg/injection, schedule: Q03HX003 (ip), vehicle: saline with Tween-80): 0 of 10 on day 25
survivor count (T/C endpoint: median tumor weight change, dose: 5.0 mg/kg/injection, schedule: Q03HX003 (ip), vehicle: saline with Tween-80): 0 of 10 on day 25

COC(=O)[C@@]12OC[C@]34[C@H]([C@@H](O)[C@@H]1O)[C@@]1(C)CC(=O)C(O)=C(C)[C@@H]1C[C@H]3OC(=O)[C@H](OC(=O)/C=C(\C)C(C)C)[C@@H]24
survivor count (T/C endpoint: median tumor weight (est.), dose: 2.0 mg/kg/injection, schedule: Q07DX005 (ip), vehicle: saline + alcohol): 6 of 10
survivor count (T/C endpoint: median tumor weight (est.), dose: 4.0 mg/kg/injection, schedule: Q07DX005 (ip), vehicle: saline + alcohol): 3 of 10

CSCS(=O)C[C@H](CO)NC(=O)/C=C/c1c(C)[nH]c(=O)[nH]c1=O (stereo partly specified)
survivor count (T/C endpoint: median tumor weight (est.), dose: 4.0 mg/kg/injection, schedule: Q07DX005 (ip), vehicle: saline): 3 of 10 on day 30
survivor count [4]: 0 of 10 on day 30
survivor count (T/C endpoint: median tumor weight (est.), dose: 16.0 mg/kg/injection, schedule: Q07DX005 (ip), vehicle: saline): 0 of 10 on day 30

Cc1c2ccccc2cc2cccc[n+]12
T/C (T/C endpoint: median tumor weight change, dose: 10.0 mg/kg/injection, schedule: Q01DX001 (ip), vehicle: saline, evaluated on day 32): 136 % of control
survivor count (T/C endpoint: median tumor weight change, dose: 80.0 mg/kg/injection, schedule: Q01DX001 (ip), vehicle: saline): 4 of 10 on day 32
survivor count (T/C endpoint: median tumor weight change, dose: 100.0 mg/kg/injection, schedule: Q01DX001 (ip), vehicle: saline): 1 of 10 on day 29
survivor count (T/C endpoint: median tumor weight change, dose: 160.0 mg/kg/injection, schedule: Q01DX001 (ip), vehicle: saline): 0 of 10 on day 32
survivor count (T/C endpoint: median tumor weight change, dose: 200.0 mg/kg/injection, schedule: Q01DX001 (ip), vehicle: saline): 0 of 10 on day 29
survivor count (T/C endpoint: median tumor weight change, dose: 400.0 mg/kg/injection, schedule: Q01DX001 (ip), vehicle: saline): 0 of 10 on day 29
survivor count (T/C endpoint: median tumor weight change, dose: 800.0 mg/kg/injection, schedule: Q01DX001 (ip), vehicle: saline): 0 of 10 on day 29

O=CC=O
survivor count (T/C endpoint: median tumor weight (est.), dose: 400.0 mg/kg/injection, schedule: Q07DX005 (ip), vehicle: Klucel (hydroxypropylcellulose) (HPC)): 6 of 10

O=C1C2CC=CCC2C(=O)N1SC(Cl)(Cl)Cl (stereo unspecified)
survivor count (T/C endpoint: median tumor weight (est.), dose: 50.0 mg/kg/injection, schedule: Q07DX005 (ip), vehicle: saline with Tween-80): 4 of 10 on day 30
survivor count (T/C endpoint: median tumor weight (est.), dose: 100.0 mg/kg/injection, schedule: Q07DX005 (ip), vehicle: saline with Tween-80): 1 of 10 on day 30

COC(=O)Nc1nc2ccc(SC)cc2c(=O)[nH]1
survivor count (T/C endpoint: median tumor weight change, dose: 1000.0 mg/kg/injection, schedule: Q01DX001 (ip), vehicle: Klucel (hydroxypropylcellulose) (HPC)): 4 of 10 on day 35
survivor count (T/C endpoint: median tumor weight change, dose: 2000.0 mg/kg/injection, schedule: Q01DX001 (ip), vehicle: Klucel (hydroxypropylcellulose) (HPC)): 0 of 10 on day 35

C[C@]12CC[C@H]3[C@@H](CCC4=C[C@@H](OC5OCC(OC6OC(CO)C(O)C(O)C6O)C(O)C5O)CC[C@@]43C=O)[C@@]1(O)CCC2C1=CC(=O)OC1 (stereo partly specified)
T/C (T/C endpoint: median tumor weight (est.), dose: 20.0 mg/kg/injection, schedule: Q07DX005 (ip), vehicle: Klucel (hydroxypropylcellulose) (HPC), evaluated on day 30): 129 % of control

CNC(=O)OCc1c(COC(=O)NC)c(-c2ccc(F)cc2)n2c1CCC2
survivor count [3]: 5 of 10 on day 30

Cc1cc(C)c(-c2cc(O)c(C)cc2O)c(C)c1
T/C [5]: 144 % of control
T/C [6]: 128 % of control

OCC1OC(n2cnc3c(=S)nc[nH]c32)C(O)C1O (stereo unspecified)
survivor count (T/C endpoint: median tumor weight (est.), dose: 1600.0 mg/kg/injection, schedule: Q07DX005 (ip), vehicle: saline with Tween-80): 4 of 10 on day 30

COc1cccc2c1C(=O)c1c(O)c3c(c(O)c1C2=O)C[C@@](O)(/C(C)=N\NC(=O)CO)C[C@@H]3OC1CC(N)C(O)C(C)O1 (stereo partly specified)
survivor count [4]: 1 of 10

Cn1c(=O)[nH]c2nncnc2c1=O
survivor count (T/C endpoint: median tumor weight change, dose: 125.0 mg/kg/injection, schedule: Q01DX001 (ip), vehicle: other): 1 of 10 on day 33
survivor count (T/C endpoint: median tumor weight change, dose: 250.0 mg/kg/injection, schedule: Q01DX001 (ip), vehicle: other): 0 of 10 on day 33

Nc1nc2nc[nH]c2c(=O)[nH]1
survivor count (T/C endpoint: median tumor weight (est.), dose: 400.0 mg/kg/injection, schedule: Q07DX005 (ip), vehicle: suspension in saline): 0 of 10 on day 30

COc1nc(C(Cl)(Cl)Cl)c(Cl)c(OC)c1Cl
T/C (T/C endpoint: median tumor weight change, dose: 62.5 mg/kg/injection, schedule: Q01DX001 (ip), vehicle: Klucel (hydroxypropylcellulose) (HPC), evaluated on day 29): 130 % of control
T/C (T/C endpoint: median tumor weight change, dose: 125.0 mg/kg/injection, schedule: Q01DX001 (ip), vehicle: Klucel (hydroxypropylcellulose) (HPC), evaluated on day 35): 133 % of control
survivor count (T/C endpoint: median tumor weight change, dose: 200.0 mg/kg/injection, schedule: Q01DX005 (ip), vehicle: Klucel (hydroxypropylcellulose) (HPC)): 4 of 10 on day 27
survivor count (T/C endpoint: median tumor weight change, dose: 300.0 mg/kg/injection, schedule: Q01DX005 (ip), vehicle: Klucel (hydroxypropylcellulose) (HPC)): 0 of 10 on day 27 and 3 of 10 on day 22

NC(=O)c1ncn2c(=O)n(CCCl)nnc12
survivor count (T/C endpoint: median tumor weight change, dose: 100.0 mg/kg/injection, schedule: Q01DX001 (ip), vehicle: suspension in saline): 6 of 10 on day 28
survivor count (T/C endpoint: median tumor weight change, dose: 200.0 mg/kg/injection, schedule: Q01DX001 (ip), vehicle: suspension in saline): 4 of 10 on day 28
survivor count (T/C endpoint: median tumor weight change, dose: 400.0 mg/kg/injection, schedule: Q01DX001 (ip), vehicle: suspension in saline): 0 of 10 on day 28

C/C=C1\C[C@@H]2C(OC)Nc3cc(O)c(OC)cc3C(=O)N2C1 (stereo partly specified)
survivor count [1]: 1 of 10 on day 31
survivor count [2]: 0 of 10 on day 31

O=c1nc(Oc2ccccc2)nc2ncccn12
survivor count (T/C endpoint: median tumor weight (est.), dose: 200.0 mg/kg/injection, schedule: Q07DX005 (ip), vehicle: saline with Tween-80): 3 of 10 on day 32

CCCN1COC(OCC)C(C)(C)C1 (stereo unspecified)
survivor count (T/C endpoint: median tumor weight change, dose: 400.0 mg/kg/injection, schedule: Q01DX001 (ip), vehicle: saline with Tween-80): 2 of 10 on day 28
survivor count (T/C endpoint: median tumor weight change, dose: 800.0 mg/kg/injection, schedule: Q01DX001 (ip), vehicle: saline with Tween-80): 0 of 10 on day 28
survivor count (T/C endpoint: median tumor weight change, dose: 1000.0 mg/kg/injection, schedule: Q01DX001 (ip), vehicle: saline with Tween-80): 0 of 10 on day 26

CCC1OCC(C(Cl)CCl)O1 (stereo unspecified)
T/C [5]: 131 % of control
T/C [6]: 134 % of control [9 of 10 alive]
